In doi:10.1101/255976:
For at least one entry, the source does not settle the construct or the ends of the probe. At least one verdict rests on a figure or table, not on a statement of the authors.

The chains behind the UniProt entries cited, without tags or fusion partners. Where a name states a change or a piece, a line headed by the entry shows the natural chain unless it says otherwise.
UniProt P38398: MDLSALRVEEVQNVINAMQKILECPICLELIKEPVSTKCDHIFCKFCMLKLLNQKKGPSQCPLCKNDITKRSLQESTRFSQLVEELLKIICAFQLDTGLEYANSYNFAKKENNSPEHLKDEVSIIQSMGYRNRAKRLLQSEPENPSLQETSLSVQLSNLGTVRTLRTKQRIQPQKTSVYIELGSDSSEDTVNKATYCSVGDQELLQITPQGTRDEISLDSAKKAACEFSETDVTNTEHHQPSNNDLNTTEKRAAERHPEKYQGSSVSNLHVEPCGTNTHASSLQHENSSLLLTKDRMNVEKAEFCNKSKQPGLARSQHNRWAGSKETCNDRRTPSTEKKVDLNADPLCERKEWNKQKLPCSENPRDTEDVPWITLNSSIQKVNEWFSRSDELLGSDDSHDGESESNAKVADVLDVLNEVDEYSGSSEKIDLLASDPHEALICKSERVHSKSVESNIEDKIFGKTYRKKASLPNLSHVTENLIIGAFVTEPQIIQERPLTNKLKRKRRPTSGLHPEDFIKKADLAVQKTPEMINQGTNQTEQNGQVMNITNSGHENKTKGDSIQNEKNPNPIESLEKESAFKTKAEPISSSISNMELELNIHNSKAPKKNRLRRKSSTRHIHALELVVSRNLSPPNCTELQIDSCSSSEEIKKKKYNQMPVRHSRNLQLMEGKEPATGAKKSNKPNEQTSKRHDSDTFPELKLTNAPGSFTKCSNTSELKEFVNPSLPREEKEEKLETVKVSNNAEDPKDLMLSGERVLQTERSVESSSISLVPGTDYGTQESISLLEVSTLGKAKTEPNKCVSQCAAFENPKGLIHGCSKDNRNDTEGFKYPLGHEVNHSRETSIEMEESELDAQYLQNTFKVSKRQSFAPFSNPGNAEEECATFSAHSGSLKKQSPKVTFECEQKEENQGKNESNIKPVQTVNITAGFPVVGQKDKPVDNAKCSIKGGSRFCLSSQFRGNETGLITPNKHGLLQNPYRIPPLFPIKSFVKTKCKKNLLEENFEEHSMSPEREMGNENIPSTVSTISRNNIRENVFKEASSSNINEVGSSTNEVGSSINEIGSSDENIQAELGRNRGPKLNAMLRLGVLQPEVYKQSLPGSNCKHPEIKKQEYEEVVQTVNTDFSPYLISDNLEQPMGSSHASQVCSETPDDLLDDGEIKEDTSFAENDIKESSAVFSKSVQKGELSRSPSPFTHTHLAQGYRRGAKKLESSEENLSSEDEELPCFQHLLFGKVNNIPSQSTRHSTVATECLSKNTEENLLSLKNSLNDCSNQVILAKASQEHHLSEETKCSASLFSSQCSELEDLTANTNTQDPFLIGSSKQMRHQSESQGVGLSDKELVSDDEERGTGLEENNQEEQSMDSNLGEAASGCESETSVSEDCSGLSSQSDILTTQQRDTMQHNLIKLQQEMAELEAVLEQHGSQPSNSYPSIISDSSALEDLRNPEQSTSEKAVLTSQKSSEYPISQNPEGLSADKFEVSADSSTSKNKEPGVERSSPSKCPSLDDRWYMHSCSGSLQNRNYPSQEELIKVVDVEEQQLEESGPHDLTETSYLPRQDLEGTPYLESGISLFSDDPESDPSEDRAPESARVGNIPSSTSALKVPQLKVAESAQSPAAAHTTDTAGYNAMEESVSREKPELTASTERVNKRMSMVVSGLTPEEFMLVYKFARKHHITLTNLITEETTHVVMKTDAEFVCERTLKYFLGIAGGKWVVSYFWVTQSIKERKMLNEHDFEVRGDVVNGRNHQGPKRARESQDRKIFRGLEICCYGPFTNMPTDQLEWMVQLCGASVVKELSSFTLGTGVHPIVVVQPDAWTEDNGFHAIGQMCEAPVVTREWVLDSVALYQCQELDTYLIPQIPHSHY

Tests used:
BRCA1 (human) = BRCA1 (human) (UniProt P38398); assay: EMSA; details: 1 mM EDTA, no added divalent metal
BRCA1 + BARD1 = assay: EMSA; details: 1 mM EDTA, no added divalent metal

GACGTCATAGACGATTACATTGCTAGGACATGCTGTCTAGAGACTATCGC (double strand) [50 bp dsDNA X12-3/X12-4C]
binding result (BRCA1 (human)): binds
binding result (BRCA1 + BARD1): binds
